The record followed here is PMC11947133.

Sequences of proteins named here, by UniProt entry; tags and fusion partners are left off. Residues count along the entry.
UniProt P0DTD2: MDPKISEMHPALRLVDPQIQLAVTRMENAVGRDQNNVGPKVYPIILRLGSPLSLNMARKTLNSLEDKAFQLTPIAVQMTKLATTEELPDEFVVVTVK
UniProt Q9BXK5: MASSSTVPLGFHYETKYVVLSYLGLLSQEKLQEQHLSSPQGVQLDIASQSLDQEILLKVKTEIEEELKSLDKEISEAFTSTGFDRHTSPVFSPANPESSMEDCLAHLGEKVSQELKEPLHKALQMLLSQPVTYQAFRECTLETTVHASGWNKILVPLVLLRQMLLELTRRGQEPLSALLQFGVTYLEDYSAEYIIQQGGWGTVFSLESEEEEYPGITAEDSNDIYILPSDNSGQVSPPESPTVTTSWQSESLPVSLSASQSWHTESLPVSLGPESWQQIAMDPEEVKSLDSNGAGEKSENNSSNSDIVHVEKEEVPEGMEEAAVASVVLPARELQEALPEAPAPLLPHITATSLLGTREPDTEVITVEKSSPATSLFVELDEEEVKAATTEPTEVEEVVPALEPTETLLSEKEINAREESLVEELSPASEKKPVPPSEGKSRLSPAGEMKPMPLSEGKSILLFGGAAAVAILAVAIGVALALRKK
UniProt Q9NWH2: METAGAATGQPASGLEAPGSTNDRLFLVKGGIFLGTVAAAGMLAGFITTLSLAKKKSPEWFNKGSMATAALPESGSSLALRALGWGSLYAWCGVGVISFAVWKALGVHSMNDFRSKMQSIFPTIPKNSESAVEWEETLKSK
UniProt O95169, residues 29-186: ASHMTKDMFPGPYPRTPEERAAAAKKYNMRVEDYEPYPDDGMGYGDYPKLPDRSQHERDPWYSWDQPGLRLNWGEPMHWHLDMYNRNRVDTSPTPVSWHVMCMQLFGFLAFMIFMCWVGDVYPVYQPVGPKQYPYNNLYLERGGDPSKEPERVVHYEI

Like-named read-outs stand apart in the source and are kept apart here. These are yes or no findings as the source states them, for the method shown. Binding seen in cells or lysates may run through a third protein. Some entries that bind do so weakly or less than the wild type.

Holding throughout (test): split reporter
In assay [1] the target is SARS-CoV-2 ORF9b (SARS-CoV-2) (UniProt P0DTD2).
The target of assay [2] is SARS-CoV-2 NSP1 (SARS-CoV-2) (UniProt P0DTD1).
Assay [3] addresses SARS-CoV-2 NSP13 viral helicase (SARS-CoV-2) (UniProt P0DTD1).
Assay [4] concerns the target SARS-CoV-2 ORF9b (SARS-CoV-2) (UniProt P0DTD2). This is another data set of the same source.

On to BCL2L13 (from UniProt Q9BXK5 1-485), for which, in assay [1], the binding result was “binds”. Regarding TMEM242 (from UniProt Q9NWH2 1-141), the binding result in assay [1] is given as “binds”.

Regarding NDUFB8 (from UniProt O95169 29-186), the binding entry in assay [1] is “binds”.

B1: WIPI1 (protein, UniProt Q5MNZ9 1-446)
chain: MEAEAADAPPGGVESALSCFSFNQDCTSLATGTKAGYKLFSLSSVEQLDQVHGSNEIPDVYIVERLFSSSLVVVVSHTKPRQMNVYHFKKGTEICNYSYSSNILSIRLNRQRLLVCLEESIYIHNIKDMKLLKTLLDIPANPTGLCALSINHSNSYLAYPGSLTSGEIVLYDGNSLKTVCTIAAHEGTLAAITFNASGSKLASASEKGTVIRVFSVPDGQKLYEFRRGMKRYVTISSLVFSMDSQFLCASSNTETVHIFKLEQVTNSRPEEPSTWSGYMGKMFMAATNYLPTQVSDMMHQDRAFATARLNFSGQRNICTLSTIQKLPRLLVASSSGHLYMYNLDPQDGGECVLIKTHSLLGSGTTEENKENDLRPSLPQSYAATVARPSASSASTVPGYSEDGGALRGEVIPEHEFATGPVCLDDENEFPPIILCRGNQKGKTKQS
With B1, the binding result in assay [2] is “binds”.

B2: human deubiquitinase USP13 (enzyme, UniProt Q92995 1-863)
chain: MQRRGALFGMPGGSGGRKMAAGDIGELLVPHMPTIRVPRSGDRVYKNECAFSYDSPNSEGGLYVCMNTFLAFGREHVERHFRKTGQSVYMHLKRHVREKVRGASGGALPKRRNSKIFLDLDTDDDLNSDDYEYEDEAKLVIFPDHYEIALPNIEELPALVTIACDAVLSSKSPYRKQDPDTWENELPVSKYANNLTQLDNGVRIPPSGWKCARCDLRENLWLNLTDGSVLCGKWFFDSSGGNGHALEHYRDMGYPLAVKLGTITPDGADVYSFQEEEPVLDPHLAKHLAHFGIDMLHMHGTENGLQDNDIKLRVSEWEVIQESGTKLKPMYGPGYTGLKNLGNSCYLSSVMQAIFSIPEFQRAYVGNLPRIFDYSPLDPTQDFNTQMTKLGHGLLSGQYSKPPVKSELIEQVMKEEHKPQQNGISPRMFKAFVSKSHPEFSSNRQQDAQEFFLHLVNLVERNRIGSENPSDVFRFLVEERIQCCQTRKVRYTERVDYLMQLPVAMEAATNKDELIAYELTRREAEANRRPLPELVRAKIPFSACLQAFSEPENVDDFWSSALQAKSAGVKTSRFASFPEYLVVQIKKFTFGLDWVPKKFDVSIDMPDLLDINHLRARGLQPGEEELPDISPPIVIPDDSKDRLMNQLIDPSDIDESSVMQLAEMGFPLEACRKAVYFTGNMGAEVAFNWIIVHMEEPDFAEPLTMPGYGGAASAGASVFGASGLDNQPPEEIVAIITSMGFQRNQAIQALRATNNNLERALDWIFSHPEFEEDSDFVIEMENNANANIISEAKPEGPRVKDGSGTYELFAFISHMGTSTMSGHYICHIKKEGRWVIYNDHKVCASERPPKDLGYMYFYRRIPS
Take B2: in assay [3], the binding result is given as “binds”.

B3: MFF (protein, UniProt Q9GZY8 1-342)
chain: MSKGTSSDTSLGRVSRAAFPSPTAAEMAEISRIQYEMEYTEGISQRMRVPEKLKVAPPNADLEQGFQEGVPNASVIMQVPERIVVAGNNEDVSFSRPADLDLIQSTPFKPLALKTPPRVLTLSERPLDFLDLERPPTTPQNEEIRAVGRLKRERSMSENAVRQNGQLVRNDSLWHRSDSAPRNKISRFQAPISAPEYTVTPSPQQARVCPPHMLPEDGANLSSARGILSLIQSSTRRAYQQILDVLDENRRPVLRGGSAAATSNPHHDNVRYGISNIDTTIEGTSDDLTVVDAASLRRQIIKLNRRLQLLEEENKERAKREMVMYSITVAFWLLNSWLWFRR
Take B3: the binding entry in assay [4] is on record as “binds”.
